Experimental data: PubChem BioAssay AID2685 (National Center for Advancing Translational Sciences (NCATS), 2010)
This is one part of the list. Further columns of the screen follow, without active or inactive calls. The list favours compounds with an active or inconclusive main result. Words in brackets tell the shape of the fitted curve; partial curves, single points and poor fits give uncertain potencies.

Test: qHTS Assay for Lipid Storage Modulators in Drosophila S3 Cells;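 for cell number change: cells counted by Cell Tracker Red CMTPX staining in the red channel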
Conditions: BODIPY lipid droplet fluorescence, 18-24 h; for cell number change: measured here: cell count max response, cells fed with added oleic acid
Outline: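 Drosophila S3 cells got compounds at several concentrations plus oleic acid (400 uM solution). Laser-scanning cytometry with 488 nm excitation read lipid droplets at 500-530 nm and cells at 575-640 nm. Percent activity was relative to 20 uM Triacsin C.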

[1] = measured here: cell number channel AC50, cells fed with added oleic acid
[2] = measured here: lipid fluorescence (Fed channel) AC50, cells fed with added oleic acid

SMILES | cell number change | AC50 [1] | AC50 [2]
Cc1noc(C)c1C(=O)OCC(=O)c1ccc[nH]1 | 8.66% | 0.82 µM [rising, full curve] | –
CCCCNc1c(-c2ccc(-c3cccc(Cl)c3)cc2)nc2ccccn12 | – | – | 1.84 µM [falling, partial curve]
CC(=O)c1ccc(Sc2nnnn2-c2ccccc2)c([N+](=O)[O-])c1 | -15.4% | – | 29.1 µM [falling, single point]
CC(=O)c1ccc(N2CCN(C(=O)c3ccc(C(=O)c4ccccc4)cc3)CC2)cc1 | -23.1% | – | 6.51 µM [rising, single point]
CCc1ccc(NC(=O)C2CCCN2C(=O)NC2CCCCC2)cc1 (stereo unspecified) | 30.8% | 6.51 µM [rising, partial curve, poor fit] | 5.17 µM [rising, single point]
Cc1nc2ccccn2c1C(=O)Nc1ccc(Cl)cc1 | 8.75% | – | 0.291 µM [rising, full curve]
NC(=O)CCS(=O)(=O)c1ccccc1 | 0.572% | – | –
Cc1nc(NC(=O)COC(=O)c2cccs2)c(Cl)cc1Cl | 75% | 29.1 µM [rising, partial curve, poor fit] | –
COCCNc1nc(SCc2ccccc2)nc2sc3c(c12)CCC3 | -5.2% | – | 29.1 µM [falling, single point]
CCc1ccccc1N(C(=O)CNC(=O)c1ccco1)C(C(=O)NC1CCCC1)c1cccnc1 (stereo unspecified) | -8.97% | 3.26 µM [rising, partial curve] | 0.116 µM [falling, full curve, poor fit]
COC(=O)CSc1nnc(-c2ccncc2)n1N | -44.4% | 29.1 µM [falling, single point] | –
CN(C)c1ccc(C(=O)c2ccccc2)cc1 | 63.9% | 13 µM [rising, partial curve, poor fit] | 6.51 µM [rising, single point]
Cc1occc1-c1nnc(SCC(=O)Nc2nccs2)n1CCc1ccccc1 | 0.397% | – | 1.64 µM [rising, partial curve]
CC(C)(C)c1ccc(S(=O)(=O)NCc2ccc(C(=O)N3CCOCC3)cc2)cc1 | 7.82% | – | 13 µM [falling, partial curve]
COc1ccc(/C=C(/NC(=O)c2ccccc2)C(=O)N2CCC(C)CC2)cc1 | 29.5% | – | –
O=C(NC12CC3CC(CC(C3)C1)C2)c1ccc(-c2ccc(Cl)cc2)o1 | – | 6.51 µM [rising, partial curve, poor fit] | 6.51 µM [rising, partial curve, poor fit]
Nc1ncnc2nc(N3CCN(C(=O)c4ccccc4)CC3)[nH]c12 | 2.21% | – | 0.184 µM [rising, full curve, poor fit]
CN1CC(=O)NC1=NC(=O)c1ccc(Cl)c(S(=O)(=O)N2CCCCCC2)c1 | -11.5% | – | 25.9 µM [falling, partial curve, poor fit]
Cc1ccc(C(=O)CC(C(=O)O)n2cnc([N+](=O)[O-])n2)cc1 (stereo unspecified) | 11.6% | – | 2.31 µM [rising, full curve, poor fit]
COc1ccc(OC(C)C(=O)N(C)Cc2nc(-c3ccccc3)no2)cc1 (stereo unspecified) | -31.6% | 13 µM [falling, single point] | 6.31 µM [falling, partial curve, poor fit]
CN(c1ccccc1C(=O)N1CCCC1)S(C)(=O)=O | -116% | 25.9 µM [falling, partial curve] | 23.1 µM [falling, partial curve]
CCCOc1ccc(NC(=O)CC2C(=O)N(Cc3ccccc3)C(=S)N2Cc2cccs2)cc1 (stereo unspecified) | – | 3.26 µM [rising, partial curve, poor fit] | 1.84 µM [rising, partial curve, poor fit]
N#C/C(=C\c1ccc(-c2ccccc2Cl)o1)C(=O)Nc1nc2ccccc2s1 | 19.2% | – | 0.58 µM [rising, partial curve]
CCc1ccc(CN2CCSCC2)cc1 | – | – | 25.9 µM [rising, single point]
CC(C)Cn1c(-c2cc(Br)ccc2F)nc2c1c(=O)[nH]c(=O)n2CC(C)C | 5.42% | – | 8.2 µM [falling, single point]
NC(=O)C1(N2CCCCC2)CCN(CC(=O)Nc2cc(Cl)ccc2Cl)CC1 | – | – | 5.8 µM [rising, single point]
COc1ccc(-c2cc(C(F)F)n3ncc(C(=O)Nc4c(C)n(C)n(-c5ccccc5)c4=O)c3n2)cc1 | 0.239% | – | 6.51 µM [falling, single point]
O=CN1CCN(C2CC(=O)N(c3ccc(Br)cc3)C2=O)CC1 (stereo unspecified) | -10.5% | 0.0164 µM [falling, full curve, poor fit] | –

Another view of some results above:
SMILES,cell number change,AC50 [1],AC50 [2]
CN(c1ccccc1C(=O)N1CCCC1)S(C)(=O)=O,-116%,"25.9 µM [falling, partial curve]","23.1 µM [falling, partial curve]"
CCCOc1ccc(NC(=O)CC2C(=O)N(Cc3ccccc3)C(=S)N2Cc2cccs2)cc1 (stereo unspecified),–,"3.26 µM [rising, partial curve, poor fit]","1.84 µM [rising, partial curve, poor fit]"
N#C/C(=C\c1ccc(-c2ccccc2Cl)o1)C(=O)Nc1nc2ccccc2s1,19.2%,–,"0.58 µM [rising, partial curve]"
CCc1ccc(CN2CCSCC2)cc1,–,–,"25.9 µM [rising, single point]"
CC(C)Cn1c(-c2cc(Br)ccc2F)nc2c1c(=O)[nH]c(=O)n2CC(C)C,5.42%,–,"8.2 µM [falling, single point]"
NC(=O)C1(N2CCCCC2)CCN(CC(=O)Nc2cc(Cl)ccc2Cl)CC1,–,–,"5.8 µM [rising, single point]"
